Results taken from PMC10797486.
Results are given in words; binding and its absence hold for the method and conditions named. Some entries that bind do so weakly or less than the wild type.

Molecular target: POPEYE (PYE) (Arabidopsis thaliana) (UniProt Q9SN74)
Assay: two-hybrid; yeast two-hybrid (Clontech), GAL4 BD baits and GAL4 AD preys; co-transformed yeast spotted in a 10-fold dilution series; growth on SD-W/L and SD-W/L/H/A

B1: POPEYE (PYE) (protein, UniProt Q9SN74 1-240)
chain: MVSKTPSTSSDEANATADERCRKGKVPKRINKAVRERLKREHLNELFIELADTLELNQQNSGKASILCEATRFLKDVFGQIESLRKEHASLLSESSYVTTEKNELKEETSVLETEISKLQNEIEARANQSKPDLNTSPAPEYHHHHYQQQHPERVSQFPGLPIFQGPGFQQSATTLHPPATVLVLPIQPDPQTQDISEMTQAQQPLMFNSSNVSKPCPRYASAADSWSSRLLGERLKASE
binding: binds
